Measurements reported in PubChem BioAssay AID504793 (Drosophila RNAi Screening Center, 2011).
In all, the deposit lists about 23,000 reagents; shown is an unselected part of those with a known target gene and a result. Of all reagents, 62 (0.27%) were called active. 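Calls come from follow-up tests whose scores are not deposited, so confirmed genes may have low counts here; counts are not normalised per plate.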 Raw values are not corrected between plates. A plus sign joins genes that one reagent is predicted to hit.

Purpose: 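Whole-genome screen for parts of the DNA damage checkpoint at G2/M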 (primary screen)
System: Drosophila S2R+ cells
Knock-down reagent: long dsRNA against Drosophila genes, about 0.25 µg dsRNA per well
Timing: 4 days of dsRNA, then 4 hours of drug before read-out
Challenge: doxorubicin 0.5 µM for 4 hours to cause double-strand breaks, in cells also given a low, harmless dose of dsRNA against nbs to sensitise the assay
Measured: 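Per-well count of mitotic cells stained for phospho-histone H3 after doxorubicin exposure, used as mitotic index; counts are raw and not normalised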
Direction: mitotic cells: higher = more cells in mitosis, weaker G2 arrest
Rule for the call: 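a call needs confirmation in secondary tests, with other dsRNAs and a check of mitotic timing without damage, not just a high primary count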
Meaning of the calls: active = confirmed in follow-up tests; inactive = not confirmed

| gene | DRSC id | mitotic cells, replicate 1 | Call |
| --- | --- | --- | --- |
| Kdm4B (Lysine demethylase 4B) | DRSC06862 | 10 | inactive |
| Kdm4B (Lysine demethylase 4B) | DRSC26702 | 3 | inactive |
| SLC5A11 (Sodium/solute co-transporter-like 5A11) | DRSC03088 | 3 | inactive |
| ash2 (absent, small, or homeotic discs 2) | DRSC16902 | 7 | inactive |
| CG3517 | DRSC15492 | 8 | inactive |
| CG3517 | DRSC26928 | 4 | inactive |
| FucTC (alpha1,3-fucosyltransferase C) | DRSC20966 | 13 | inactive |
| FucTC (alpha1,3-fucosyltransferase C) | DRSC29686 | 13 | inactive |
| Megf8 (Multiple EGF like domains 8) | DRSC03058 | 3 | inactive |
| Prx6c + CG12896 + Prx6b | DRSC06148 | 6 | inactive |
| Prx6c + CG12896 + Prx6b | DRSC28111 | 3 | inactive |
| CG13308 | DRSC09979 | 5 | inactive |
| Fancm (Fanconi anemia group M helicase) | DRSC16348 | 12 | inactive |
| CG14879 | DRSC15003 | 4 | inactive |
| CG14879 | DRSC28083 | 5 | inactive |
| CG32181 | DRSC22635 | 11 | inactive |
| CG32181 | DRSC26268 | 5 | inactive |
| CG14106 | DRSC10109 | 4 | inactive |
| Tmx3 (Thioredoxin-related transmembrane protein 3) | DRSC10471 | 6 | inactive |
| CG1986 | DRSC18197 | 3 | inactive |
| CG1986 | DRSC27916 | 1 | inactive |
| Gdh (Glutamate dehydrogenase) | DRSC16679 | 7 | inactive |
| Gdh (Glutamate dehydrogenase) | DRSC28603 | 3 | inactive |
| tud (tudor) | DRSC04719 | 4 | inactive |
| CG10674 | DRSC09775 | 7 | inactive |
| scpr-A + scpr-C + scpr-B | DRSC15715 | 7 | inactive |
| IntS2 (Integrator 2) | DRSC20094 | 9 | inactive |
| Myo95E (Myosin 95E) | DRSC15821 | 9 | inactive |
| ACXA (Adenylyl cyclase X A) | DRSC00844 | 5 | inactive |
| ACXA (Adenylyl cyclase X A) | DRSC25338 | 14 | inactive |
| CG17028 | DRSC10239 | 5 | inactive |
| CG17028 | DRSC29850 | 6 | inactive |
| JMJD7 (Jumonji domain containing 7) | DRSC09703 | 5 | inactive |
| scra (scraps) | DRSC07679 | 10 | inactive |
| CG10512 | DRSC11615 | 5 | inactive |
| CG10512 | DRSC27914 | 3 | inactive |
| ppk30 (pickpocket 30) | DRSC15302 | 28 | inactive |
| CG11178 | DRSC19396 | 10 | inactive |
| cid (centromere identifier) | DRSC05429 | 6 | inactive |
| cid (centromere identifier) | DRSC07592 | 5 | inactive |
| nclb (no child left behind) | DRSC07009 | 4 | inactive |
| tub (tube) | DRSC12389 | 11 | inactive |
| tub (tube) | DRSC22800 | 9 | inactive |
| Ing5 (Inhibitor of growth family member 5) | DRSC03188 | 10 | inactive |
| Ing5 (Inhibitor of growth family member 5) | DRSC25216 | 11 | inactive |
| CG5909 | DRSC15914 | 10 | inactive |
| CG5909 | DRSC27750 | 13 | inactive |
| spi (spitz) | DRSC03618 | 10 | inactive |
| spi (spitz) | DRSC29414 | 4 | inactive |
| S-Lap8 (Sperm-Leucylaminopeptidase 8) | DRSC06870 | 13 | inactive |
| S-Lap8 (Sperm-Leucylaminopeptidase 8) | DRSC21372 | 4 | inactive |
| S-Lap8 (Sperm-Leucylaminopeptidase 8) | DRSC29560 | 6 | inactive |
| CG1648 | DRSC06610 | 4 | inactive |
| CG1648 | DRSC27450 | 6 | inactive |
| Eno (Enolase) | DRSC00750 | 5 | inactive |
| CG5641 | DRSC15852 | 8 | inactive |
| CG16711 | DRSC10220 | 8 | inactive |
| CG16711 | DRSC23733 | 15 | inactive |
| TyrR (Tyramine receptor) | DRSC16242 | 14 | inactive |
| CG15073 | DRSC06506 | 1 | inactive |
| CG15073 | DRSC27105 | 8 | inactive |
| GstT1 (Glutathione S transferase T1) | DRSC06243 | 4 | inactive |
| CG17271 | DRSC15210 | 10 | inactive |
| CG17271 | DRSC22982 | 14 | inactive |
| CG17271 | DRSC25780 | 5 | inactive |
| CG30429 | DRSC04040 | 6 | inactive |
| Art9 (Arginine methyltransferase 9) | DRSC16584 | 3 | inactive |
| GstE6 (Glutathione S transferase E6) | DRSC06676 | 9 | inactive |
| CG18367 | DRSC06545 | 6 | inactive |
| CG18367 | DRSC28507 | 4 | inactive |
| CG31468 | DRSC13637 | 53 | inactive |
| Hsp110 (Heat shock protein 110) | DRSC11186 | 6 | inactive |
| Hsp110 (Heat shock protein 110) | DRSC26538 | 6 | inactive |
| CG34447 | DRSC00741 | 4 | inactive |
| CG5946 | DRSC10560 | 5 | inactive |
| CG11141 | DRSC06048 | 6 | inactive |
| CG32409 | DRSC08780 | 13 | inactive |
| CG32409 | DRSC25913 | 1 | inactive |
| CG3285 | DRSC00589 | 3 | inactive |
| CG33251 (retired record) + CG9915 | DRSC20217 | 4 | inactive |
| Ssadh (Succinic semialdehyde dehydrogenase) | DRSC15621 | 6 | inactive |
| Ssadh (Succinic semialdehyde dehydrogenase) | DRSC27782 | 10 | inactive |
| Klp31E (Kinesin-like protein at 31E) | DRSC03354 | 7 | inactive |
| nop5 | DRSC03582 | 7 | inactive |
| Dph1 (Diphthamide biosynthesis 1) | DRSC09851 | 5 | inactive |
| AstC-R1 (Allatostatin C receptor 1) | DRSC10799 | 2 | inactive |
| AstC-R1 (Allatostatin C receptor 1) | DRSC29648 | – | inactive |
| CG15876 | DRSC08484 | 6 | inactive |
| CG15876 | DRSC27697 | 10 | inactive |
| Srrm234 (Serine-arginine repetitive matrix 2/3/4) | DRSC07955 | 19 | inactive |
| Srrm234 (Serine-arginine repetitive matrix 2/3/4) | DRSC08606 | 7 | inactive |
| CG42288 | DRSC06381 | 7 | inactive |
| CG42288 | DRSC26648 | 6 | inactive |
| Fsn (F-box synaptic protein) | DRSC06875 | 8 | inactive |
| Fsn (F-box synaptic protein) | DRSC27704 | 5 | inactive |
| kune (kune-kune) | DRSC04860 | 5 | inactive |
| CG11630 | DRSC03696 | 10 | inactive |
| Akap200 (A kinase anchor protein 200) | DRSC01864 | 7 | inactive |
| phu (phurba tashi) | DRSC16390 | 10 | inactive |
| Alp12 (Alkaline phosphatase 12) | DRSC02515 | 5 | inactive |
| Phf7 (PHD finger protein 7) | DRSC23523 | 4 | inactive |
| Pxt (Peroxinectin-like) | DRSC17040 | 4 | inactive |
| Mkp3 (Mitogen-activated protein kinase phosphatase 3) | DRSC10084 | 4 | inactive |
| Mkp3 (Mitogen-activated protein kinase phosphatase 3) | DRSC10085 | 6 | inactive |
| RpL37A (Ribosomal protein L37A) | DRSC02899 | 7 | inactive |
| RpL37A (Ribosomal protein L37A) | DRSC25051 | 12 | inactive |
| Jon74E (Jonah 74E) | DRSC10617 | 14 | inactive |
| Jon74E (Jonah 74E) | DRSC23947 | 5 | inactive |
| CG30001 | DRSC05191 | 5 | inactive |
| NetA (Netrin-A) | DRSC20261 | 12 | inactive |

Sorted by “mitotic cells, replicate 1” (low to high): some entries from above.
| gene | DRSC id | mitotic cells, replicate 1 | Call |
| --- | --- | --- | --- |
| Art9 (Arginine methyltransferase 9) | DRSC16584 | 3 | inactive |
| GstT1 (Glutathione S transferase T1) | DRSC06243 | 4 | inactive |
| CG18367 | DRSC28507 | 4 | inactive |
| CG17271 | DRSC25780 | 5 | inactive |
| CG30429 | DRSC04040 | 6 | inactive |
| CG18367 | DRSC06545 | 6 | inactive |
| GstE6 (Glutathione S transferase E6) | DRSC06676 | 9 | inactive |
| CG17271 | DRSC15210 | 10 | inactive |
| CG17271 | DRSC22982 | 14 | inactive |
